These results are taken from PMC12548414.

About 20 (1%) of roughly 1,600 compounds showed an effect of 50% or more. The list shows a part of the results.

The test concerns T1, E. coli pLC1021 (luc-trpAt trans-translation reporter).
T1 construct: pLC1021 luc-trpAt reporter strain
The arrangement: species or system Escherichia coli pLC1021; luc-trpAt non-stop luciferase reporter; luminescence rises when trans-translation is inhibited; normalized to KKL-35 and DMSO. To be noted: reporter signal, KKL-35 = 100%; rise means trans-translation inhibition; 2 h, 20 µM. A digest of the protocol:
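Cells carrying the non-stop luc-trpAt reporter were exposed to 20 µM compound for 2 h at room temperature, then Bright-Glo was added and luminescence read at 560 nm after 10 min. Signals were normalised per plate to DMSO and 20 µM KKL-35 wells. Hits: activity one SD above the median; ≥2 biological repeats averaged.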
For the compound `Cc1c(CN2CCC3(CC2)NC(=O)c2ccccc2O3)[nH]c2ccc(F)cc12` [KKL-0440], the “% activation” value was found to be 0%. Then `COc1cccc(-c2ccccc2NC(=O)C2CCN(Cc3ccc4ccccc4c3)CC2)c1` [KKL-1168], with 0%; and `COc1ccc(C(=O)C(CN2CCOCC2)c2ccccc2)cc1` (centres unmarked) [KKL-0352], with 0%; and `CC(=O)NC(=S)NNC(=O)c1ccc(C(C)(C)C)cc1` [KKL-0588], with 143%. Then `Cc1oc(C(=O)Nc2ncc(Cc3ccccc3F)s2)cc1CN1CCOCC1` [KKL-0938], with 0%. Then `COc1ccc(Nc2ccccc2N)cc1` [KKL-0833], with 0%. `Oc1nc(-c2ccccn2)nc2sc(-c3ccccc3)cc12` [KKL-0817]: the “% activation” value is given as 20%.

With `COc1cc(NC(=O)c2cc3ccccc3o2)ccc1NC(=O)c1ccccc1Cl` [KKL-1466], the “% activation” value turned out to be 0%.

As to `Cc1cc(=O)oc2cc(OCC(=O)OC3CCCCC3)ccc12` [KKL-1250], the “% activation” value is 7%. For `CCCCc1cccc(C(=O)Nc2nnc(S(=O)(=O)CCCC)s2)n1` [KKL-1853] the value was 6%. Take `N#Cc1cccc(-c2ccc(NCC3CCC(CN(C(=O)O)c4cccnn4)CC3)nc2)c1` (centres unmarked) [KKL-1855]: the “% activation” value is 0%. For `O=C(Nc1ccccc1Br)c1ccc([N+](=O)[O-])o1` [KKL-0424] the value was 0%; for `CCc1c(C)nc(-n2nc(C)cc2NC(=O)c2ccccc2SC)[nH]c1=O` [KKL-1708], 2%. As for `CCCCCCc1cc2cc(C(=O)NC)c(=N)oc2cc1O` [KKL-1013], the “% activation” value came out at 12%. For `Cc1ccc2nc(C)c(C(=O)NCC(C)C)n2c1` [KKL-1757] the value was 3%. For `Cc1ccc(C(=O)NC[C@H]2C[C@@H]3CCN2C[C@@H]3c2cc(-c3ccc4ccccc4c3)nn2C)cc1` [KKL-0337] the value was 0%; for `Cc1ccccc1N1CCN(C2CCCN(C(=O)c3ccc4c(c3)no[n+]4[O-])C2)CC1` (centres unmarked) [KKL-0625], 2%. For the compound `O=[N+]([O-])c1ccc(NCCNc2nc3ccccc3nc2N2CCOCC2)cc1` [KKL-0399], the “% activation” value is 9%. For `CN1CCN(c2cc(-c3ccncc3)nc(-c3ccccc3)n2)CC1` [KKL-1795] the value was 237%; for `Cc1cc(C)c(C(=O)/C=C/c2cccc([N+](=O)[O-])c2)cc1C` [KKL-0409], 0%. For `NC(CC(=O)c1ccc(Cl)cc1Cl)C(Cl)(Cl)Cl` (centres unmarked) [KKL-0766] the value was 0%; for `COc1cccc(C(=O)Nc2nc(-c3ccccc3)c(-c3ccccc3)o2)c1` [KKL-1006], 9%; for `Cc1ccc2oc(SC(=O)Nc3nccs3)nc2n1` [KKL-1872], 0%. As to `NC1CCN(c2c(F)cc3c(=O)c(C(=O)O)cn(C4CC4)c3c2Cl)C1` (centres unmarked) [KKL-1008], the “% activation” value is given as 38%. Then `CCCCc1ccc(C(=O)Nc2nccc3ccccc23)nc1` [KKL-1763], with 50%; and `CCCOc1ccccc1NC(=O)Nc1ccc(Cl)c(Cl)c1` [KKL-0411], with 2%; and `O=C(c1[nH]nc2c1CCCC2)N1CCN(Cc2ccc3c(c2)OCO3)CC1` [KKL-1704], with 0%. Then `CCOC(=O)c1c(CSc2ccccc2)n(-c2ccccc2)c2ccc(O)c(CN(C)C)c12` [KKL-0298], with 0%. For `Cc1ccc(C(=O)CC(=O)c2cc(Cl)ccc2O)cc1` [KKL-0456] the value was 0%; for `Cc1cc(C)c(-n2cccn2)c(CN(CCCn2ccnc2)Cc2ccc(F)cc2)c1` [KKL-1032], 8%. `CCc1ccc(CCC(=O)Nc2ccc(C)cc2)o1` [KKL-1248]: the “% activation” value is recorded as 0%. Then `CN(C)c1ccc(N=Nc2nc3ccccc3n2C)cc1` [KKL-1056], with 0%.

With `COc1ccc(-c2nc(CN3CCC4(C=Cc5ccccc54)CC3)c(C)o2)c(OC)c1C` [KKL-0487], the “% activation” value amounted to 0%. For `CC(Oc1ccccc1)C(=O)Nc1nc(-c2ccccn2)cs1` (centres unmarked) [KKL-1690] the value was 15%.

On to `CC(C)(C)c1ccc(C(O)CN2CCC3(CC2)CC(O)c2cc(F)ccc2O3)cc1` (centres unmarked) [KKL-0935], for which the “% activation” value came out at 0%. Then `COc1ccccc1N1CCN(Cc2nc(-c3ccc(C)cc3)no2)CC1` [KKL-1207], with 5%; and `COc1ccc(-c2nnc3sc(Cc4csc(C)n4)nn23)cc1` [KKL-1783], with 0%. Then `COc1ccccc1OC(=O)c1sc2ccccc2c1Cl` [KKL-0908], with 0%. For `Fc1cccc(Cl)c1C1c2[nH]c3ccccc3c2CCN1Cc1ncc[nH]1` (centres unmarked) [KKL-0643] the value was 6%; for `O=C(Nc1ccc(Cl)cc1)NC1CC2CCC1C2` (centres unmarked) [KKL-0577], 0%.

Take `Cc1scc(C(=O)NCc2ccco2)c1-c1ccccc1` [KKL-0613]: the “% activation” value is given as 1%. As for `O=C(COc1ccccc1)N1CCN(c2cnc3ccccc3n2)CC1` [KKL-1867], the “% activation” value is recorded as 22%. For `CCOC(=O)CSc1nc(C#N)c(SCC(=O)OCC)s1` [KKL-0955] the value was 12%. As for `COc1cc(C(F)(F)F)nc2ccc(C)c(N)c12` [KKL-1833], the “% activation” value is recorded as 7%. For `COC(=O)[C@@H]1Cc2c([nH]c3ccccc23)[C@H]2C[C@H](NC3CC3)C[C@@H](c3ccc(C(F)(F)F)cc3)N21` [KKL-1600] the value was 0%.

As for `Cc1ccc2cc(CNc3ccc(-c4nc5cc(C)ccc5[nH]4)cc3)c(O)nc2c1` [KKL-0534], the “% activation” value was determined as 0%. Take `CN(Cc1cccc(-n2cccn2)c1)C(=O)c1ccc2nc(C3CCCCC3)oc2c1` [KKL-0621]: the “% activation” value was determined as 0%. For `Cc1c(Cc2ccccc2)c(NCCCO)n2c(nc3ccccc32)c1C#N` [KKL-1593] the value was 0%; for `Cc1cnc(NC(=O)CSc2ccc(Cl)cc2)s1` [KKL-0784], 0%; for `CCCOC(=O)CSc1nnc(-c2ccc(N(C)C)cc2)o1` [KKL-1217], 9%.
